# Source: patent US5605821, “Expression control sequences of the P-selectin gene” (Board of Regents of the University of Oklahoma)
# Key:
# [1] = test system: RelA-containing heterodimers; assay: EMSA; conditions: protein in an extract; protein details: cell extracts; label: 32P
# [2] = test system: NF-kB family (complex II); assay: EMSA; conditions: protein in an extract, protein details: nuclear extracts, label: 32P
# [3] = test system: NF-kB family (complex II); assay: competition with a labelled probe; conditions: unlabeled oligo inhibited complex II; protein in an extract; protein details: nuclear extracts
Sequence,binding result [1],binding result ([2]; complexes IIa and IIb),binding result [3],"binding result ([2]; complex II, blocked by antisera to NFKB1 and NFKB2)"
CATCTTCCATGGAAGGGGGTGACCCCTTGCCTCTTGGCAAC (double strand) [P-selectin 4632-4672],no binding,binds,–,–
CGGCTGGGGATTCCCCATCT (double strand) [H-2Kb NF-kB element],–,–,binds,–
GGAAGGGGGTGACCCCTTGCCTC (double strand) [P-selectin 4642-4664],no binding,–,–,binds

# Construct, isoform or probe ends are uncertain for at least one entry. Where cells or extracts were used, other partners may take part. For some assays here: A negative result means that nothing was seen under these conditions.
